Article PMC7862700
This is a selection; strong and weak results do not stand in their true shares. At the low end of the ranking the order means little.

The chains behind the UniProt entries cited, without tags or fusion partners. Where a name states a change or a piece, a line headed by the entry shows the natural chain unless it says otherwise.
UniProt O43186: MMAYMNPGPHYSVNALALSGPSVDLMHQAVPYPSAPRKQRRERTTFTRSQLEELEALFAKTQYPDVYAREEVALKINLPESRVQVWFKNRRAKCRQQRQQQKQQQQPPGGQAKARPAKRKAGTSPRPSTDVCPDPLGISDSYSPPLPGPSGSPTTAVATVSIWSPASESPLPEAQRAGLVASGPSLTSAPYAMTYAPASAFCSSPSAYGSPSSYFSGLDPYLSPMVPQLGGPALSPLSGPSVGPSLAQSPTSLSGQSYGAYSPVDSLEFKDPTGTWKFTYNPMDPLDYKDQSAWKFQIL

Columns and labels:
Assay in all cases: DAPPL (digital affinity profiling via proximity ligation, sequencing)
Conditions in all cases: 10 mM Tris-HCl pH 7.5, 50 mM NaCl, 1 mM DTT, 4% glycerol, room temperature, 30 min; GST-TFs on glutathione beads, 16-mer random dsDNA library, 0.1% …; high values mean tight binding; double strand, one strand shown; scale: fold enrichment (6-mer frequency, TF over GST control)
FEV = target: T1, FEV (UniProt Q99581)
T1 sequence: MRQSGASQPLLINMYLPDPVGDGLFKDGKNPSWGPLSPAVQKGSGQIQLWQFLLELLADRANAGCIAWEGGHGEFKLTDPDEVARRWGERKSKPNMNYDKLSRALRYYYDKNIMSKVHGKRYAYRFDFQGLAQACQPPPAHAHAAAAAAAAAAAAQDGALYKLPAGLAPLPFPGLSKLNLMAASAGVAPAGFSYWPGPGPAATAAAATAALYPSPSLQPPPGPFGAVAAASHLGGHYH

CRX = CRX (UniProt O43186)
ELF5 = target: T2, ELF5 (UniProt Q9UKW6-2)
T2 sequence: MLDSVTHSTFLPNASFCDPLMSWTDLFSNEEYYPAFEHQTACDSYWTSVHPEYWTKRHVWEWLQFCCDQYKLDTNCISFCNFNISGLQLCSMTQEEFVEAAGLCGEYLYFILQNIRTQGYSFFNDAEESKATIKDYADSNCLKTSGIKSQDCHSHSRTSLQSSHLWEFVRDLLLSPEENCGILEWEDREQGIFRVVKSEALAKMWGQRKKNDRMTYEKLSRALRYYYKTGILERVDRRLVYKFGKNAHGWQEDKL

Row | Sequence | binding signal (FEV) | binding signal (CRX) | binding signal (ELF5)
1 | GACACT | 0.975 | 0.731 | –
2 | TACTAT | 1.31 | 1.48 | –
3 | TGATTA | 0.953 | 2.23 | –
4 | GCGAAT | 0.959 | 1.08 | –
5 | ACTGCA | 1.18 | 0.836 | –
6 | TCGCGG | 1.02 | 0.92 | –
7 | GCACAA | 1.1 | 0.882 | –
8 | GTTGAC | 1.18 | 0.794 | –
9 | AGTGAC | 1.11 | 0.745 | –
10 | CATCTC | 1.2 | 1.16 | –
11 | CTGTAG | 0.883 | 0.78 | –
12 | CGCTCG | 1.08 | 0.84 | –
13 | TGTAAC | 1.23 | 0.995 | –
14 | TATGAC | 1.25 | 1.23 | –
15 | ATGCGT | 1.01 | 0.936 | –
16 | AGGGAA | 0.891 | 0.749 | –
17 | GCGCCT | 1.13 | 0.928 | –
18 | GCCCGG | 1.04 | 0.635 | –
19 | GGACTT | 1.4 | 1.08 | –
20 | CTCCGT | 1.14 | 0.892 | –
21 | GATCTA | 0.991 | 1.41 | –
22 | TTAGGT | 0.936 | 1.82 | –
23 | CGTTCC | 1.5 | 0.983 | –
24 | CCACCT | 1.17 | 0.885 | –

Random excerpt: 6 records from the list
Row | Sequence | binding signal (FEV) | binding signal (CRX) | binding signal (ELF5)
24 | CCACCT | 1.17 | 0.885 | –
8 | GTTGAC | 1.18 | 0.794 | –
22 | TTAGGT | 0.936 | 1.82 | –
20 | CTCCGT | 1.14 | 0.892 | –
13 | TGTAAC | 1.23 | 0.995 | –
23 | CGTTCC | 1.5 | 0.983 | –

Remaining list, next part:

Row | Sequence | binding signal (FEV) | binding signal (CRX) | binding signal (ELF5)
25 | ATTTTA | 1.25 | 1.83 | –
26 | CATGGG | 0.958 | 0.896 | –
27 | CGACAT | 1.31 | 0.987 | –
28 | CCACTC | 1.27 | 0.984 | –
29 | TGCCCT | 1.18 | 0.985 | –
30 | CTGAAG | 1.05 | 0.989 | –
31 | CTCGTC | 1.31 | 1.02 | –
32 | ACATAG | 0.998 | 0.892 | –
33 | AGAATA | 0.992 | 1.42 | –
34 | GTGTCT | 0.944 | 0.784 | –
35 | GATACA | 0.992 | 0.775 | –
36 | CCGGCT | 1.8 | 1.6 | –
37 | GGAAAT | 4 | 0.929 | –
38 | TGACCA | 1.22 | 0.988 | –
39 | TAACCA | 1 | 1.31 | –
40 | AATACG | 1.19 | 1.36 | –
41 | GCCGGA | 1.59 | 0.534 | –
42 | ATGAGG | 0.842 | 0.81 | –
43 | TAAGCG | 0.919 | 1.86 | –
44 | CTGCAG | 1.1 | 0.894 | –
45 | GATTGC | 0.933 | 0.96 | –
46 | TAGGTC | 0.929 | 0.908 | –
47 | CTTATA | 1.31 | 2.27 | –
48 | TAGAAT | 1.04 | 1.83 | –

Row | Sequence | binding signal (FEV) | binding signal (CRX) | binding signal (ELF5)
49 | CCAACT | 1.27 | 1.01 | –
50 | AGGATG | 0.922 | 0.83 | –
51 | AGGTAA | 0.939 | 1.14 | –
52 | AGTGTC | 0.958 | 0.711 | –
53 | AAGTGC | 1.32 | 0.994 | –
54 | ATAGGG | 0.971 | 0.937 | –
55 | CCGCGC | 1.11 | 0.88 | –
56 | TCGAAC | 0.992 | 1.07 | –
57 | TGGGTG | 0.957 | 0.75 | –
58 | ACCTGT | 0.968 | 0.777 | –
59 | GTATCA | 1.04 | 0.988 | –
60 | GTAGCT | 0.988 | 1.02 | –
61 | ACTTGT | 1.28 | 1.1 | –
62 | ACGCGG | 0.926 | 0.754 | –
63 | AGTGCA | 1.15 | 0.763 | –
64 | ACTTCT | 1.4 | 1.55 | –
65 | GGGAAA | 0.915 | 0.743 | –
66 | AATCAC | 1.09 | 1.3 | –
67 | GTTTTG | 1.16 | 0.98 | –
68 | TCACGG | 0.971 | 0.834 | –
69 | GTTGCG | 0.978 | 0.736 | –
70 | GGATAT | 3.83 | 1.09 | –
71 | ATTTCG | 1.25 | 1.45 | –
72 | CGACGC | 0.997 | 0.781 | –

Row | Sequence | binding signal (FEV) | binding signal (CRX) | binding signal (ELF5)
73 | CTATGC | 1.36 | 1.15 | –
74 | TGTGGT | 0.968 | 0.819 | –
75 | TCATAA | 1 | 1.38 | –
76 | ATTATA | 1.32 | 3.2 | –
77 | TCCTAA | 1.41 | 2.09 | –
78 | GTTTGA | 1.13 | 0.987 | –
79 | TGCAAG | 0.962 | 0.86 | –
80 | CGGAAA | 3.21 | 0.603 | –
81 | TCAACA | 1.05 | 0.99 | –
82 | GACTAC | 1.08 | 0.916 | –
83 | ACCCCT | 1.08 | 0.943 | –
84 | GCTACG | 1.16 | 0.92 | –
85 | GCTAAG | 0.945 | 1.75 | –
86 | TAGTGT | 1.02 | 1.29 | –
87 | CATTGT | 1.09 | 0.864 | –
88 | CATAGT | 0.905 | 0.889 | –
89 | CTGAAA | 1.25 | 1 | –
90 | ATGGCA | 1.44 | 1.11 | –
91 | TCCGCC | 1.88 | 1.05 | –
92 | GGCCTT | 1.14 | 1.02 | –
93 | TGGTAA | 1.15 | 1.51 | –
94 | ACAACC | 1.34 | 0.852 | –
95 | GATGCG | 1.15 | 0.854 | –
96 | AGTAAA | 0.92 | 0.97 | –

Row | Sequence | binding signal (FEV) | binding signal (CRX) | binding signal (ELF5)
97 | TTGTGC | 1.18 | 1.09 | –
98 | TGCGAC | 1.24 | 0.891 | –
99 | AATGAA | 1.11 | 1.03 | –
100 | TAAATT | 1.25 | 1.76 | –
101 | ACGGCA | 0.977 | 0.798 | –
102 | TGTACA | 1.24 | 0.905 | –
103 | TTCTAG | – | – | 1.2
104 | ATTTGC | 1.29 | 1.5 | –
105 | TTGGGG | – | – | 1.14
106 | AGTAAC | 0.94 | 0.796 | –
107 | TCAAGT | – | – | 0.968
108 | CCTTTT | – | – | 1.61
109 | CGTTGT | 0.967 | 0.792 | –
110 | TGCTCG | – | – | 1.18
111 | GTTTGT | 0.912 | 0.753 | –
112 | TAATAT | – | – | 1.22
113 | TCCTTC | 2.2 | 1.72 | –
114 | ATGGCG | 0.968 | 0.894 | –
115 | TCAGCC | – | – | 0.895
116 | TTTCAA | – | – | 1.26
117 | CGCCCC | 1.21 | 0.834 | –
118 | GACTTC | 3.36 | 1.12 | –
119 | GTGTCC | 1.1 | 0.639 | –
120 | AGCTGT | – | – | 0.972
